Results as given in patent publication US20180369136A1, “DEVICES AND METHODS FOR TRANSDERMAL TREATMENT OF BASAL CELL CARCINOMA” (NORTH CAROLINA STATE UNIVERSITY, priority 2015, published 2018).
For at least one compound, name, drawing or mass did not settle the structure.

Tests used:
[1] = test system: SHH-expressing human skin grafts resembling human BCC; assay: SHH-expressing human skin graft on mouse (BCC-like model), H&E staining after 2 weeks of daily itraconazole; format: in vivo
[2] = test system: basal cell carcinoma tumor; conditions: oral itraconazole, cited from earlier work
[3] = test system: Hedgehog signaling pathway activity (Smoothened); conditions: cited from earlier work

CCC(C)n1ncn(-c2ccc(N3CCN(c4ccc(OCC5COC(Cn6cncn6)(c6ccc(Cl)cc6Cl)O5)cc4)CC3)cc2)c1=O (stereo not drawn) [itraconazole]
epidermis of skin graft by H&E staining ([1]; Group I: direct topical pipetting of 50 μl 5 mg/ml itraconazole daily for two weeks, no microneedles, FIG. 4A): basaloid overgrowth that resembles human BCC
epidermis of skin graft by H&E staining ([1]; Group II: 4×4 solid PGA microneedles, then topical pipetting of 50 μl 5 mg/ml itraconazole daily for two weeks, versus control graft, FIG. 4B): markedly thinner than that of the control graft
epidermis of skin graft by H&E staining ([1]; Group III: 50 μl itraconazole injected through 85 hollow stainless steel microneedles daily for two weeks, versus Group I, FIG. 4C): also thinner than the untreated tissues of Group I
reduction of cell proliferation ([2]; later clinical study): 45%
reduction of tumor area ([2]; later clinical study): 24%
decrease in basal cell carcinoma tumor diameter ([2]; patients, 2012 report): 30%
wound healing ([2]; patients, 2012 report): improved wound healing
Hedgehog signaling pathway activity (Smoothened) [3]: suppression
Hedgehog signaling pathway suppression activity with resistance-conferring Smoothened mutations ([3]; in the presence of all resistance-conferring Smoothened mutations): showing Hedgehog signaling pathway suppression activity
